Source: paper PMC12431657, “Discovery and mechanistic insights of dibenzoylmethane as a broad spectrum inhibitor of coronavirus” (PLOS Pathogens, 2025)
Structures can show the parent of a compound that is named as a salt. Where two headings read alike, the source gives them in different places. The campaign covered roughly 3,300 compounds. About 60 (2%) showed an effect of 50% or more. Some of the results follow. Peptide text beside a SMILES is read from it.

System: HCoV-OC43
Design: species or system RD; HTS, protection from HCoV-OC43 induced cell death, luminescent cell viability (CellCounting-Lite 2.0), inhibition rate
Settings: 24 h post infection, 1 h compound pre-incubation, 10 µM, inhibitor

CS/C=C/C(=O)NCCO[C@@H]1O[C@H](CO)[C@@H](O)[C@H](O)[C@H]1O [Entadamide-A-β-D-glucopyranoside]
OC43 Inhibition rate: -0.1%

C[C@H](CCC(=O)NCC(=O)O)[C@H]1CC[C@H]2[C@@H]3[C@H](O)C[C@@H]4C[C@H](O)CC[C@]4(C)[C@H]3C[C@H](O)[C@]12C [Glycocholic acid]
OC43 Inhibition rate (OC43 Inhibition rate, 24 h): -0.5%

N[C@@H](CCC(=O)O)C(=O)N[C@@H](Cc1c[nH]c2ccccc12)C(=O)O [Oglufanide] (H-Glu-Trp-OH)
OC43 Inhibition rate: 0.6%

CC(C)c1cc2c(c(O)c1O)[C@@]13CCCC(C)(C)[C@@H]1C[C@@H]2OC3=O [Carnosol]
OC43 Inhibition rate: -0.4%

Cc1ncc(C[n+]2csc(CCO)c2C)c(N)n1 [Thiamine (hydrochloride)]
OC43 Inhibition rate (OC43 Inhibition rate, 24 h): 1.2%

O=C1c2c(O)cccc2C([C@@H]2O[C@H](CO)[C@@H](O)[C@H](O)[C@H]2O)c2cc(CO)cc(O)c21 (stereo partly shown) [Aloin]
OC43 Inhibition rate: 0.3%

CC(C)C[C@H](NC(=O)[C@@H](O)[C@H](N)Cc1ccccc1)C(=O)O [Bestatin]
OC43 Inhibition rate (OC43 Inhibition rate, 24 h): 1.8%

COc1ccc2c(c1OC)CN(C)CCc1cc3c(cc1C(=O)C2)OCO3 [Allocryptopine]
OC43 Inhibition rate: 0.1%

C[C@@H]1CC[C@@]2(OC1)O[C@H]1C[C@H]3[C@@H]4CC=C5C[C@@H](O[C@@H]6O[C@H](CO)[C@@H](O)[C@H](O)[C@H]6O[C@@H]6O[C@@H](C)[C@H](O)[C@@H](O)[C@H]6O)CC[C@]5(C)[C@H]4CC[C@]3(C)[C@H]1[C@@H]2C [Prosapogenin A]
OC43 Inhibition rate: -12%

O=C(O)C[C@@](O)(C(=O)O)[C@H](O)C(=O)O [(-)-Hydroxycitric acid]
OC43 Inhibition rate: 1.5%

COc1ccc([C@@H]2OC[C@H]3[C@@H]2CO[C@@H]3c2ccc3c(c2)OCO3)cc1OC [Fargesin]
OC43 Inhibition rate: 1.1%

C=C1C(=O)[C@]23[C@H](O)[C@H]1CC[C@H]2[C@@]12CO[C@]3(O)[C@@H](O)[C@@H]1C(C)(C)CC[C@@H]2O [Oridonin]
OC43 Inhibition rate: 17.2%

NC(CCC(=O)O)C(=O)O (racemic) [DL-Glutamic acid]
OC43 Inhibition rate: -0.3%

CCCCCCCCCCCCCCCCC(=O)OC [Methyl heptadecanoate]
OC43 Inhibition rate: 2.2%

CC(=O)OCC[N+](C)(C)C [Acetylcholine (chloride)]
OC43 Inhibition rate (OC43 Inhibition rate, 24 h): -0.3%

CC(=O)OC[C@@]12CC[C@@H](C)[C@](C)(CCC3=CC(=O)OC3)[C@H]1C[C@H](O)C=C2CO [Blinin]
OC43 Inhibition rate: 0.6%

Oc1ccc(/C=C/c2cc(O)cc(O)c2)cc1 [Resveratrol]
OC43 Inhibition rate: -0.1%

O=C(O)c1ccccc1O [Sodium Salicylate]
OC43 Inhibition rate (OC43 Inhibition rate, 24 h): -1.1%

CN(C)Cc1c[nH]c2ccccc12 [Gramine]
OC43 Inhibition rate: 0.2%

CC[C@]1(O)C[C@H]2CN(CCc3c([nH]c4ccccc34)[C@@](C(=O)OC)(c3cc4c(cc3OC)N(C=O)[C@H]3[C@@](O)(C(=O)OC)[C@H](OC(C)=O)[C@]5(CC)C=CCN6CC[C@]43[C@@H]65)C2)C1 [Vincristine (sulfate)]
OC43 Inhibition rate: 0.3%

NC[C@@H]1O[C@H](O[C@H]2[C@@H](O)[C@H](O[C@@H]3[C@@H](O)[C@H](N)C[C@H](N)[C@H]3O[C@H]3O[C@H](CO)[C@@H](O)[C@H](O)[C@H]3N)O[C@@H]2CO)[C@H](N)[C@@H](O)[C@@H]1O [Paromomycin (sulfate)]
OC43 Inhibition rate: 16.9%

O=C1C[C@@H](c2ccc(O)cc2)Oc2cc(O[C@@H]3O[C@H](CO)[C@@H](O)[C@H](O)[C@H]3O)ccc21 [Neoliquiritin]
OC43 Inhibition rate: 2.5%

COc1ccccc1OCC(O)CO (stereo not shown) [Guaifenesin]
OC43 Inhibition rate: -1.5%

Cc1coc2c1C(=O)c1ccc3c(c1C2=O)CCCC3(C)C [Isotanshinone IIA]
OC43 Inhibition rate: 0.1%

Cc1cc(O)cc(O)c1 [Orcinol]
OC43 Inhibition rate: -0.4%

COC(=O)[C@H]1[C@H]2C[C@@H]3c4[nH]c5cc(OC)ccc5c4CCN3C[C@H]2C[C@@H](OC(=O)c2cc(OC)c(OC)c(OC)c2)[C@@H]1OC [Reserpine (hydrochloride)]
OC43 Inhibition rate (OC43 Inhibition rate, 24 h): 16.8%

CC1(C)[C@@H](O)CC[C@]2(C)[C@H]3CC=C4[C@@H]5C[C@@]6(C)C[C@H](OC6=O)[C@]5(C)CC[C@@]4(C)[C@]3(C)CC[C@@H]12 [Wilforlide A]
OC43 Inhibition rate: 0.1%

Oc1cc(O)c2c(c1)O[C@H](c1ccc(O)c(O)c1)[C@H](O)[C@H]2c1c(O)cc(O)c2c1O[C@H](c1ccc(O)c(O)c1)[C@H](O)C2 [Procyanidin B2]
OC43 Inhibition rate: 0.4%

CC(C)=CCC/C(C)=C/C=O [Citral]
OC43 Inhibition rate: 0%

COc1cccc2c1C(=O)c1c(O)c3c(c(O)c1C2=O)C[C@@](O)(C(C)=O)C[C@@H]3O[C@H]1C[C@H](N)[C@H](O)[C@H](C)O1 [Daunorubicin (hydrochloride)]
OC43 Inhibition rate: 11.9%

O=C(O[C@@H]1Cc2c(O)cc(O)cc2O[C@@H]1c1cc(O)c(=O)c2c(O)c(O)cc([C@H]3Oc4cc(O)cc(O)c4C[C@H]3OC(=O)c3cc(O)c(O)c(O)c3)c2c1)c1cc(O)c(O)c(O)c1 [Theaflavin 3,3'-digallate]
OC43 Inhibition rate: 1.3%

O=c1ccn([C@@H]2O[C@H](CO)[C@@H](O)[C@@H]2O)c(=O)[nH]1 [1-beta-D-Arabinofuranosyluracil]
OC43 Inhibition rate: 0.9%

COc1cc(-c2oc3cc(O)cc(O)c3c(=O)c2O)ccc1O [Isorhamnetin]
OC43 Inhibition rate: -0.5%

CC1(C)CC[C@]2(C(=O)O[C@@H]3O[C@H](CO)[C@@H](O)[C@H](O)[C@H]3O)CC[C@]3(C)C(=CC[C@@H]4[C@@]5(C)CC[C@H](O[C@@H]6O[C@H](C(=O)O)[C@@H](O)[C@H](O)[C@H]6O[C@@H]6O[C@H](CO)[C@@H](O)[C@H](O)[C@H]6O)C(C)(C)[C@@H]5CC[C@]43C)[C@@H]2C1 [Ginsenoside Ro]
OC43 Inhibition rate: 5.9%

Oc1ccc([C@H]2Oc3cc(O)cc(O)c3C[C@H]2O)cc1 [(-)-Epiafzelechin]
OC43 Inhibition rate: 4.1%

O=C[C@H](O)[C@@H](O)[C@@H](O)[C@H](O)C(=O)O [D-Galacturonic acid (hydrate)]
OC43 Inhibition rate: -1.4%

CC(C)[C@H](NC(=O)[C@H](CC(=O)O)NC(=O)[C@H](CCCCN)NC(=O)[C@@H](N)CCCN=C(N)N)C(=O)N[C@@H](Cc1ccc(O)cc1)C(=O)O [Thymopentin] (H-RKDVY-OH)
OC43 Inhibition rate (OC43 Inhibition rate, 24 h): -1%

C=C1CC[C@@H]2[C@](C)(CO)[C@H](O)CC[C@@]2(C)[C@@H]1C/C=C1/C(=O)OC[C@H]1O [Andrographolide]
OC43 Inhibition rate: 1%

CN1[C@@H]2CC(O)C[C@H]1[C@@H]1O[C@@H]12 (stereo partly shown) [Scopine]
OC43 Inhibition rate: -0.3%

OCc1ccccc1O[C@@H]1O[C@H](CO)[C@@H](O)[C@H](O)[C@H]1O [Salicin]
OC43 Inhibition rate: 0%

COC(=O)C1=CO[C@@H](C)[C@H]2CN3CCc4c([nH]c5ccccc45)[C@@H]3C[C@H]12 [Ajmalicine]
OC43 Inhibition rate: -0.1%

COc1cccc(CCC(=O)O)c1 [3-(3-Methoxyphenyl)propionic acid]
OC43 Inhibition rate: 0.2%

COc1cc(O)c(C(=O)/C=C/c2ccc(O)cc2)c(OC)c1 [Flavokawain C]
OC43 Inhibition rate: 4.2%

COC(=O)[C@@H]1[C@H]2C[C@H]3c4[nH]c5ccccc5c4CCN3C[C@@H]2CC[C@@H]1O [Yohimbine (Hydrochloride)]
OC43 Inhibition rate (OC43 Inhibition rate, 24 h): -0.8%

CC[C@H]1C[C@@H]2CN3CCc4c([nH]c5ccccc45)[C@](C(=O)OC)(C2)[C@H]13 [Coronaridine]
OC43 Inhibition rate: 2.2%

CC(=O)c1ccc(O)c(O)c1 [3',4'-Dihydroxyacetophenone]
OC43 Inhibition rate: -3.2%

COc1cc([C@H]2OC[C@H]3[C@@H]2CO[C@H]3c2ccc(O)c(OC)c2)ccc1O [Pinoresinol]
OC43 Inhibition rate: 1.9%

C[C@]12CC[C@H]3[C@@H](CC[C@]4(O)C[C@@H](O)CC[C@]34C=O)[C@@]1(O)CC[C@@H]2C1=CC(=O)OC1 [Strophanthidin]
OC43 Inhibition rate: 2.8%

C/C1=C\C(=O)c2c(C)coc2C/C(C)=C/CC1 [Furanodienone]
OC43 Inhibition rate: 0.5%

COc1ccc2nccc(C(=O)O)c2c1 [Quininic acid]
OC43 Inhibition rate: 0%

CSCC[C@H](NC(=O)[C@H](Cc1ccccc1)NC(=O)[C@H](Cc1cnc[nH]1)NC(=O)CNC(=O)[C@@H](NC(=O)[C@H](C)NC(=O)[C@H](Cc1c[nH]c2ccccc12)NC(=O)[C@H](CCC(N)=O)NC(=O)[C@@H]1CCC(=O)N1)C(C)C)C(N)=O [Litorin]
OC43 Inhibition rate: -0.8%

CC(C)=CCc1cc2c(=O)cc(-c3ccc(O)cc3)oc2cc1O [Licoflavone A]
OC43 Inhibition rate: 32.7%

CO[C@@H]1[C@@H](O[C@@H]2O[C@H](C)[C@@H](O[C@H]3C[C@@](C)(O)[C@@H](OC(=O)CC(C)C)[C@H](C)O3)[C@H](N(C)C)[C@H]2O)[C@@H](CC=O)C[C@@H](C)[C@@H](O)/C=C/C=C/C[C@@H](C)OC(=O)C[C@H]1OC(C)=O [Josamycin]
OC43 Inhibition rate: 0.3%

NC(=O)NCCC[C@H](N)C(=O)O [L-Citrulline]
OC43 Inhibition rate: -7.4%

O=c1ccc2c(O)cc(O)cc2o1 [5,7-Dihydroxycoumarin]
OC43 Inhibition rate: 0.1%

O=c1oc2c(O)c(O)cc3c(=O)oc4c(O)c(O)cc1c4c23 [Ellagic acid]
OC43 Inhibition rate: -0.6%

COn1cc(CC#N)c2ccccc21 [Caulilexin C]
OC43 Inhibition rate: -0.3%

COc1ccc(/C=C/C(=O)/C=C(O)/C=C/c2ccc(OC)c(OC)c2)cc1OC [Dimethylcurcumin]
OC43 Inhibition rate: -1%
